Test results from publication PMC10965100.

By UniProt entry, the sequences of proteins in these tests, tags left out. Where a name states a change or a piece, a line headed by the entry shows the natural chain unless it says otherwise.
UniProt A0A3Q9VF17: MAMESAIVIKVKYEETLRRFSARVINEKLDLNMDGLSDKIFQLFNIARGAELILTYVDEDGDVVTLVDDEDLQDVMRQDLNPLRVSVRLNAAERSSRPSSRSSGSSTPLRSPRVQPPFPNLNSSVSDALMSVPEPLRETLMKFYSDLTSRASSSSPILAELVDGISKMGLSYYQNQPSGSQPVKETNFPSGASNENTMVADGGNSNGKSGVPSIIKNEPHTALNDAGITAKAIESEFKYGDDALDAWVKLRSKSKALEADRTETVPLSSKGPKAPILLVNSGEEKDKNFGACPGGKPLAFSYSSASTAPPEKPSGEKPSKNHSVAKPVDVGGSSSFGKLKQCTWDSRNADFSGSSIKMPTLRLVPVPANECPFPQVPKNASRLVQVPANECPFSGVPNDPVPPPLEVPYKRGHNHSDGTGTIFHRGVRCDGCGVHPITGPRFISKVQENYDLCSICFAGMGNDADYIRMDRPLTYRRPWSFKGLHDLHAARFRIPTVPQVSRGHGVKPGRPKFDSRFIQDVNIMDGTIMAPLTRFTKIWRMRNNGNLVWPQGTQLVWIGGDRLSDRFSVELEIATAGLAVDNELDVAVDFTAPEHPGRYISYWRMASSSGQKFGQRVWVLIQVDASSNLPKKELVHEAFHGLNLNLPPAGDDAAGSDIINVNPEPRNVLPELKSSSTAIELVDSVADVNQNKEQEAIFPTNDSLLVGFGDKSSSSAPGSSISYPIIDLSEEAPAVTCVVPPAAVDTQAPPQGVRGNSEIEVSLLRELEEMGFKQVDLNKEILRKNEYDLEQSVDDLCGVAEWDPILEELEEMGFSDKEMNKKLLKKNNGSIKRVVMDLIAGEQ

Experiments:
[1] = biological target: cYFP-ATG8f (N. benthamiana); test: split reporter; BiFC (nYFP and cYFP halves) in agroinfiltrated N. benthamiana leaves, confocal microscopy at 2-2.5 dpai; RFP-SKL, RFP-AtTim21 or p33-BFP mark the VROs; the VPS34-p33 pair was tested in ATG8f-silenced and TRV2-MBP control plants
[2] = biological target: TBSV p33-cYFP replication protein (Tomato bushy stunt virus); test: as above
[3] = biological target: cYFP-ATG8f (N. benthamiana); test: as above; remark: listed apart in the source
[4] = biological target: full-length TBSV p33 replication protein, MYTH bait (Tomato bushy stunt virus); test: two-hybrid; split-ubiquitin-based membrane yeast two-hybrid (MYTH); p33 as bait, NubG preys

Molecule: nYFP-NBR1 (from UniProt A0A3Q9VF17)
- binding [1]: binds

B1: nYFP-SH3P2 (protein, UniProt Q8VWF1 1-368)
chain: MDAIRKQASRLREQVARQQQAVFKQFGGGGYGSGLADEAELNQHQKLEKLYISTRAAKHYQRDIVRGVEGYIVTGSKQVEIGTKLSEDSRKYGSENTCTNGNVLTRAALNYGRARAQMEKERGNMLKALGTQVAEPLRAMVLGAPLEDARHLAQRYDRMRQEAEAQATEVARRQAKARESQGNPDILMKLESAEAKLHDLKSNMTILGKEAASALASVEDQQQKLTLERLLSMVESERAYHQRVLQILDQLEGEMVSERQRIEAPSTPSSADSMPPPPSYEEANGVFASQMHDTSTDSMGYFLGEVLFPYHGVTDVELSLSTGEYVVVRKVTGSGWAEGECKGKAGWFPYGYIERRERVLASKVSEVF
- binding [2]: binds
- binding [3]: binds

B2: GST-His6-ScATG8, MYTH prey (protein, UniProt P38182 1-117)
chain: MKSTFKSEYPFEKRKAESERIADRFKNRIPVICEKAEKSDIPEIDKRKYLVPADLTVGQFVYVIRKRIMLPPEKAIFIFVNDTLPPTAALMSAIYQEHKDKDGFLYVTYSGENTFGR
- binding [4]: binds

Where two headings read alike, the source gives them in different places. Results are given in words; binding and its absence hold for the method and conditions named. Binding calls can cover weak binding; strength is not graded here. For some of these results: Tags and fused reporters may be left off the sequences shown. For some of these results: Binding seen in cells or lysates may run through a third protein.
